From doi:10.1101/2020.07.02.184937 come the findings set out here.

By UniProt entry, the sequences of proteins in these tests, tags left out. Where a name states a change or a piece, a line headed by the entry shows the natural chain unless it says otherwise.
UniProt Q8RY59: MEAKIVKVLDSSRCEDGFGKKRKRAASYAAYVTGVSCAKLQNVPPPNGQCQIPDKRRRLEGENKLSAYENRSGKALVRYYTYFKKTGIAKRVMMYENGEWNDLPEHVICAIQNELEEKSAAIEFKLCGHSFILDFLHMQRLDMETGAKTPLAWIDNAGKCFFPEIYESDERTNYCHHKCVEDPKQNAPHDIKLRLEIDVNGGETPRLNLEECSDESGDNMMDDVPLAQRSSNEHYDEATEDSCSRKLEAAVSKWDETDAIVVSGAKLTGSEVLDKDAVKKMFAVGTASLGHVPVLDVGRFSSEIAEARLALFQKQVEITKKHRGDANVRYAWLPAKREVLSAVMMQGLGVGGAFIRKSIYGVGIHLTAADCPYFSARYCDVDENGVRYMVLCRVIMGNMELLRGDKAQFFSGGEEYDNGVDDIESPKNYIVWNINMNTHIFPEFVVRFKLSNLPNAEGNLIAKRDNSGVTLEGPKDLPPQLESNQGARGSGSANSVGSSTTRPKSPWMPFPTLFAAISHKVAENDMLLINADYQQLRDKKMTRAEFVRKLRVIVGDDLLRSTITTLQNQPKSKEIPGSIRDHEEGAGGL
UniProt Q9SQR8: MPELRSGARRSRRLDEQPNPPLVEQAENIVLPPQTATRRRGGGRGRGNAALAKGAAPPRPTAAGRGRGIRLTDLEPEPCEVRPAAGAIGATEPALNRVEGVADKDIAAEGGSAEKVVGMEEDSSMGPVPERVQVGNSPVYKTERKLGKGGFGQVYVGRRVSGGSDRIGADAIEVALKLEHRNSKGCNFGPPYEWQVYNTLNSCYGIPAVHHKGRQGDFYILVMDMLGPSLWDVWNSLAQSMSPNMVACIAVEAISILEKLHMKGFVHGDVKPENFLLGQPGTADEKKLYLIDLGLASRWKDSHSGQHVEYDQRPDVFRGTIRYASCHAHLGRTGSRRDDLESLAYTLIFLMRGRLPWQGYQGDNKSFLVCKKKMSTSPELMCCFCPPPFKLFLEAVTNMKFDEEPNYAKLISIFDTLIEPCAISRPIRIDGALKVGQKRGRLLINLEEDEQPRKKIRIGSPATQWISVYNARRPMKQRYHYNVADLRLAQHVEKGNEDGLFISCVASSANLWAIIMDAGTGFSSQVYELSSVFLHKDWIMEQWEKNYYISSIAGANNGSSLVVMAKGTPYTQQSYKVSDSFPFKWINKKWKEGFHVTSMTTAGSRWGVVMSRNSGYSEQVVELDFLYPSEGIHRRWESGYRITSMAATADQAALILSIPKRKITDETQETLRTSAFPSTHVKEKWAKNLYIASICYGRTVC

The target of this test is RADICAL-INDUCED CELL DEATH1 (RCD1) fused to GFP (Arabidopsis thaliana) (UniProt Q8RY59). Put plainly: co-IP.

These are yes or no findings as the source states them, for the method shown. Binding seen in cells or lysates may run through a third protein. Binding can be weak; no strength is given.

As to “Photoregulatory Protein Kinase 3 (PPK3), 3xHA-tagged (from UniProt Q9SQR8) (enzyme)”, the binding result is “binds”.
